Holding throughout (experiment): co-IP; N- or C-terminal 3x FLAG-p52 transfected into HEK293T; nuclear extract (RIPA, benzonase) on FLAG-M2 agarose 3 h at 4 °C; washes 0.5 M and 0.15 M HEGN; FLAG peptide elution; Western blot
In general terms: A western blot detects proteins with antibodies after separation by electrophoresis.

Protein sequences, listed by entry. Tags and fused reporters are not part of them. Lines headed by an entry give the natural chain unless they say otherwise; changes in a name come on top.
UniProt P50613: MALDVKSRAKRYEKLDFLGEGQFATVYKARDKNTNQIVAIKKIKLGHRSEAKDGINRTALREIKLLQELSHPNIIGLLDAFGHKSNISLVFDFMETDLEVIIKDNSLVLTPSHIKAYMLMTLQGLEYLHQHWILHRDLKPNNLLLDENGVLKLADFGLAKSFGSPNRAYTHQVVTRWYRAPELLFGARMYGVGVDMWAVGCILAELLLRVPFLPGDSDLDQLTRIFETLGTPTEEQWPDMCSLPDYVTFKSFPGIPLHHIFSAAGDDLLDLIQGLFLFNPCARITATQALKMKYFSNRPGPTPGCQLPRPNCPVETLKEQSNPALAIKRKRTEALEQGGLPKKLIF

The target in experiment [1] is T1, N-terminal 3×-FLAG-tagged p52 (WT) (human) (UniProt Q92759).
T1 sequence: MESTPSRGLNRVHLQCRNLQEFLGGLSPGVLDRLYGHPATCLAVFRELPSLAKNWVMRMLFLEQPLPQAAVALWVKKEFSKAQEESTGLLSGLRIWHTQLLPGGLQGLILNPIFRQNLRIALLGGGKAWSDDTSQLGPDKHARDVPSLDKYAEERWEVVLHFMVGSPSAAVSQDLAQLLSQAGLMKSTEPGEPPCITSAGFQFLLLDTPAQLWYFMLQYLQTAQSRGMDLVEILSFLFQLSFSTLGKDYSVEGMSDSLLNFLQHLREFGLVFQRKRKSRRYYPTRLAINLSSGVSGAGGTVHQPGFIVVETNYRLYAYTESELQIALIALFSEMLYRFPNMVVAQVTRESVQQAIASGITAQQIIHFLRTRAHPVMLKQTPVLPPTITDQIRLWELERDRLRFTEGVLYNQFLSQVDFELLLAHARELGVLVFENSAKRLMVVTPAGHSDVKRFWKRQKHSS

In experiment [2] the target is T2, N-terminal 3×-FLAG-tagged p52 ER310+314AA (human) (UniProt Q92759).
T2 sequence: T1 sequence with E310A, R314A

In experiment [3] the target is T3, C-terminal 3×-FLAG-tagged p52 (human) (UniProt Q92759).
T3 sequence: T1 sequence

Experiment [4] addresses T4, N-terminal 3×-FLAG-tagged p52 YY316+318AA (human) (UniProt Q92759).
T4 sequence: T1 sequence with Y316A, Y318A

Experiment [5] addresses T5, N-terminal 3×-FLAG-tagged p52 E310F (human) (UniProt Q92759).
T5 sequence: T1 sequence with E310F

The target of experiment [6] is T6, N-terminal 3×-FLAG-tagged p52 RF337–338AA (human) (UniProt Q92759).
T6 sequence: T1 sequence with R337A, F338A

Changes are numbered by the printed parent chain. These are yes or no findings as the source states them, for the method shown. In cells and extracts the contact can be indirect. Some binding calls cover weakened binding; strength is not graded here. Tags and fused reporters may be left off the sequences shown.

As for “CDK-activating kinase (CAK) module (from UniProt P50613 1-346; P51946 1-323; P51948 1-309) (complex)”, the binding result in experiment [1], in experiment [2], in experiment [3], in experiment [4], in experiment [5] and in experiment [6] was “no binding” each time.
Consider XPD (from UniProt P18074 1-760), for which the binding entry in experiment [1], in experiment [2], in experiment [4], in experiment [5] and in experiment [6] was “binds” throughout.
